# Patent publication US20050070514A1, “Therapies for treating respiratory diseases” (priority 2001, published 2005)
# Some of these results come from one statement about several compounds together. At least one compound was matched to its structure with a doubt left.
# Target: PDE 4
# Test: IC50 ratio: PDE 4 form binding rolipram with high affinity versus form binding with low affinity
# Type: biochemical, human
# Settings: bind preferentially to the low affinity binding site; method of U.S. Pat. No. 5,998,428
compound,measurement,value
N#CC1(c2ccc(OC(F)F)c(OCC3CC3)c2)CCC(O)CC1 (stereo not drawn) [cis-[4-cyano-4-(3-cyclopropylmethoxy-4-difluoromethoxyphenyl)cyclohexan-1-ol]],IC50 ratio (IC50 for the PDE 4 catalytic form which binds rolipram with a high affinity divided by the IC50 for the form which binds rolipram with a low affinity),≥ 0.1
COC(=O)C1CC(C#N)(c2ccc(OC(F)F)c(OCC3CC3)c2)CCC1=O (centres unmarked) [2-carbomethoxy-4-cyano-4-(3-cyclopropylmethoxy-4-difluoromethoxyphenyl) cyclohexan-1-one],IC50 ratio (IC50 for the PDE 4 catalytic form which binds rolipram with a high affinity divided by the IC50 for the form which binds rolipram with a low affinity),≥ 0.1
